PubChem BioAssay AID1224826 | NIAID – 2016
In all, the deposit lists about 17,000 reagents; below is a part drawn at random. About 1,110 of all reagents (6.6%) were called active. 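Active means lowered or raised reporter signal; replicate intensities are raw and not normalised per plate.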 A number with no mark means an inactive call.

Assay: 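Regulators of Tlr4 signalling leading to Tnf-alpha expression in macrophages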 (primary screen)
Cells: RAW264.7 G9 macrophages from mouse bearing reporters for p65 (GFP) and the Tnf promoter (mCherry)
Reagents: siRNA pool against mouse genes, 100 nM
Time to read-out: 16 h of LPS stimulation, after 2 days of siRNA transfection
Challenge: bacterial lipopolysaccharide (Salmonella minnesota R595), 10 ng/ml
Measurement: 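Nuclear mCherry signal of the Tnf promoter reporter measured by imaging after background removal, scaled to each plate median and turned into robust z-scores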
Scale: Tnf reporter robust z-score: higher = stronger Tnf promoter reporter signal after LPS; Tnf reporter intensity: higher = stronger Tnf promoter reporter signal
Call rule: 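Called active when robust z-score is at most -1.3, matching the median of the Tlr4 knock-down control, or over 3; control wells and wells with under 50 cells never active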
Calls: active = Tnf reporter clearly lowered or raised; inactive = no clear change in Tnf reporter

The first 7 entries, ahead of the listing:
Gene	Tnf reporter robust z-score	fewer than 50 cells in well	Tnf reporter intensity, replicate 1	Tnf reporter intensity, replicate 2
Mcmbp (GeneID 210711)	1.38	enough cells in well	429	101
Mrpl21 (GeneID 353242)	-0.02	enough cells in well	187	226
Srr (GeneID 27364)	0.06	enough cells in well	140	65.9
Orai3 (GeneID 269999)	0.37	enough cells in well	89.8	184
Fgf8 (GeneID 14179)	-1.53 (active)	enough cells in well	120	117
Opn5 (GeneID 353344)	0.32	enough cells in well	378	75.8
S1pr5 (GeneID 94226)	-1.54 (active)	enough cells in well	92.4	162

The list itself, repeating the preview:
Gene	Tnf reporter robust z-score	fewer than 50 cells in well	Tnf reporter intensity, replicate 1	Tnf reporter intensity, replicate 2
Mcmbp (GeneID 210711)	1.38	enough cells in well	429	101
Mrpl21 (GeneID 353242)	-0.02	enough cells in well	187	226
Srr (GeneID 27364)	0.06	enough cells in well	140	65.9
Orai3 (GeneID 269999)	0.37	enough cells in well	89.8	184
Fgf8 (GeneID 14179)	-1.53 (active)	enough cells in well	120	117
Opn5 (GeneID 353344)	0.32	enough cells in well	378	75.8
S1pr5 (GeneID 94226)	-1.54 (active)	enough cells in well	92.4	162
Rhof (GeneID 23912)	-0.11	enough cells in well	331	175
Arhgap22 (GeneID 239027)	-0.72	enough cells in well	151	103
Egfr (GeneID 13649)	-0.49	enough cells in well	182	116
Tmprss11b (GeneID 319875)		fewer than 50 cells per well; well left out of calls	115	103
Klk1 (GeneID 16612)	-0.61	enough cells in well	161	99.2
Gaa (GeneID 14387)	0.85	enough cells in well	332	301
Tex10 (GeneID 269536)	0.37	enough cells in well	123	113
Aqp5 (GeneID 11830)	-0.63	enough cells in well	128	139
Slc35c1 (GeneID 228368)	-1.84 (active)	enough cells in well	76	59.7
P2rx4 (GeneID 18438)	0.23	enough cells in well	259	197
Rec8 (GeneID 56739)	-0.25	enough cells in well	303	175
Kap (GeneID 16483)	1.34	enough cells in well	320	163
Gen1 (GeneID 209334)	-0.57	enough cells in well	133	128
Mrps26 (GeneID 99045)	-0.32	enough cells in well	156	194
Pabpc5 (GeneID 93728)	-0.05	enough cells in well	138	129
Ufl1 (GeneID 67490)	1.57	enough cells in well	269	96.1
A630026L20	-0.43	enough cells in well	157	119
Qsox2 (GeneID 227638)	0.24	enough cells in well	166	115
Bst1 (GeneID 12182)	-0.46	enough cells in well	1.24	137
Atp8b2 (GeneID 54667)	0.7	enough cells in well	157	232
Kcnn3 (GeneID 140493)	0.03	enough cells in well	202	181
Dlx1 (GeneID 13390)		fewer than 50 cells per well; well left out of calls	97.3	69.2
4933409K07Rik (GeneID 108816)		fewer than 50 cells per well; well left out of calls	257	117
Exosc3 (GeneID 66362)	-0.64	enough cells in well	164	126
Gper1 (GeneID 76854)	0.54	enough cells in well	253	352
Nfkb2 (GeneID 18034)	0.47	enough cells in well	284	133
Psma3 (GeneID 19167)	3.97 (active)	enough cells in well	150	299
Chrna4 (GeneID 11438)	-0.52	enough cells in well	259	119
Ank3 (GeneID 11735)	0.05	enough cells in well	160	185
Csrnp2 (GeneID 207785)	-1.34 (active)	enough cells in well	135	88
Efnb1 (GeneID 13641)	0.14	enough cells in well	238	244
Cd93 (GeneID 17064)	2.12	enough cells in well	253	271
Ddx51 (GeneID 69663)		fewer than 50 cells per well; well left out of calls	232	82.8
Nus1 (GeneID 52014)	-0.23	enough cells in well	172	161
Rad23a (GeneID 19358)	-0.86	enough cells in well	214	148
Nectin3 (GeneID 58998)	1.01	enough cells in well	454	249
Zfp870 (GeneID 240066)	-1.58 (active)	enough cells in well	99.3	59.3
Vmn1r218 (GeneID 171256)	-0.92	enough cells in well	98.5	47.8
Ercc3 (GeneID 13872)	0.09	enough cells in well	254	217
Fto (GeneID 26383)	-0.25	enough cells in well	249	110
Grin2d (GeneID 14814)	0.71	enough cells in well	350	262
Fbxl7 (GeneID 448987)	3.54 (active)	enough cells in well	406	359
Pou3f4 (GeneID 18994)	-0.91	enough cells in well	189	116
Mcm9 (GeneID 71567)		fewer than 50 cells per well; well left out of calls	46.2	47.3
Sema4a (GeneID 20351)	-1.05	enough cells in well	67.2	113
Ankrd1 (GeneID 107765)	0.2	enough cells in well	171	191
Chad (GeneID 12643)	-1.16	enough cells in well	82.3	131
Eif3i (GeneID 54709)	-2.09 (active)	enough cells in well	65.6	70.1
Or4a2 (GeneID 258972)	-0.26	enough cells in well	169	100
Rcc2 (GeneID 108911)		fewer than 50 cells per well; well left out of calls	149	51.6
Oog4 (GeneID 242737)		fewer than 50 cells per well; well left out of calls	212	185
